The nature of the data set: Isothermal titration calorimetry (ITC) of peptide binding to LTA-SA. The arrangement: species or system S. aureus. As to conditions: 200 μM peptide titrated into LTA-SA, 37° C. On the procedure: Thermodynamic binding capacity of 200 μM D-CATH2 (A), DC(1-21) (B), and DC(4-21) (C) to 200 μM LTA-SA was measured using isothermal titration calorimetry (ITC). Every 300 seconds, 1.99 μl peptide solution was titrated into 164 μl LTA solution. The corrected heat rate (μJ sec^−1) is plotted (top panel) and normalized integrated heat was plotted against the molar ratio between LTA and the peptide (lower panel). Experiments (N=3) were averaged before plotting and fitting an independent model. The corrected heat rate of D-CATH2, DC(1-21), and DC(4-21) is depicted for comparison (D).
The interaction between the D-CATH2 peptides and LTA-SA was tested using isothermal titration calorimetry (ITC). All ITC experiments were performed on a Low Volume NanoITC (TA instruments-Waters LLC, New Castle, USA). 800 μM of LTA-SA or peptide solution was prepared in MilliQ after which a 4-fold dilution in dPBS (Gibco) was made. The chamber was filled with 164 μl LTA-SA and the peptide was loaded in the syringe. Every 300 seconds, 1.99 μL peptide was titrated into the chamber at 37° C. Data was analyzed using the Nano Analyze software (TA instruments-Waters LLC). The data of three experiments was averaged and an independent model was used to determine the peptide-LTA interaction.

Where a SMILES comes first, the peptide text is derived from it. [ ]: non-standard residue; d: D form.

These results are taken from patent US20240165200A1, “CATH2 AND DERIVATIVES FOR INHIBITING STREPTOCOCCUS SUIS” (Universiteit Utrecht Holding B.V., priority 2021, published 2024).

Take `CC[C@@H](C)[C@@H](NC(=O)[C@@H](CCCCN)NC(=O)[C@@H](CCCNC(=N)N)NC(=O)[C@@H](CC(C)C)NC(=O)[C@@H](Cc1ccccc1)NC(=O)[C@H](N)CCCNC(=N)N)C(=O)N[C@H](CCCNC(=N)N)C(=O)N[C@H](CCCNC(=N)N)C(=O)N[C@H](Cc1ccccc1)C(=O)N[C@H](CCCNC(=N)N)C(=O)N1CCC[C@@H]1C(=O)N[C@H](CCCCN)C(=O)N[C@@H](C(=O)N[C@@H](C(=O)N[C@@H](C(=O)N[C@@H](C(=O)N[C@@H](C(=O)N[C@H](CCC(N)=O)C(N)=O)[C@H](C)CC)[C@H](C)O)[C@H](C)CC)[C@H](C)O)C(C)C` [DC(4-21), RFLRKIRRFRPKVTITIQ-NH2] (H-[dR][dF][dL][dR][dK][dI][dR][dR][dF][dR][dP][dK][dV][dT][dI][dT][dI][dQ]-NH2; N-terminus assumed): the “ΔH (enthalpy changes)” value was -3.999 kcal/mol and the “ΔS (entropy changes)” value is 54.68 J/mol · K.
